The data set relates to GhVOZ1 (Gossypium hirsutum). Kind of data set: EMSA. Conditions: nuclear extract; 25 °C for 30 min with nuclear extract; non-denaturing 6% PAGE in 0.5x TBE, 60 V, 4 °C, 1 h; binding buffer, salt and pH not stated; protein in an extract; label: 5'-biotin. (Mobility shift assays separate free from complexed probe on a gel.)

These results are taken from publication PMC12463063.

Construct, isoform or probe ends are uncertain for at least one entry. At least one result comes from cells or an extract, where the contact may be indirect.

Take “CAGTAGAACGCTCTCAAC (double strand) [GhGA3ox1 promoter P1 probe]”: the binding result is “binds”.
